Data set [1] deals with 3T3 murine fibroblasts. Put plainly: Cytotoxicity on 3T3 cells (MTT assay). As to conditions: 24 h.
For data set [2], the system named is Escherichia coli (ATCC 25922). Put plainly: Antimicrobial activity, growth inhibition (OD 600 nm). The data set is classed as cell-based. To be noted: ATCC25922, 6 h, read-out: IC50 E. coli.
For data set [3], the system named is Pseudomonas aeruginosa (ATCC 27853). Described as above. The data set is classed as cell-based. As to conditions: ATCC27853, 6 h, read-out: IC50 P. aeruginosa.
In data set [4] the test system is Bacillus subtilis (ATCC 6633). The description is as above. The data set is classed as cell-based. To be noted: ATCC6633, 6 h, read-out: IC50 B. subtilis.

Take `CCCCCCCCCCCCCCCC[n+]1ccccc1.[Cl-]` [[C16Py]Cl, reference compound]: the “Relative toxicity on 3T3 cells (comparison of IC50 values)” value in data set [1] (MTT) is listed as “approximately two-times less toxic”. In addition, the 50% inhibitory concentration (IC50) in data set [1] (Mus musculus, Fibroblast, read-out: IC50 for toxicity on 3T3 murine fibroblasts) stood at 30 µM; in data set [2] it was 5.71 µM; in data set [3], 3.65 µM; in data set [4], 2030 nM.

The values are drawn from paper PMC11510342, “Synthesis, Characterization, Bioavailability and Antimicrobial Studies of Cefuroxime-Based Organic Salts and Ionic Liquids” (Pharmaceutics, 2024).
